According to paper doi:10.1101/2020.11.16.385906:
These are yes or no findings as the source states them, for the method shown. Binding seen in cells or lysates may run through a third protein. Some results given as binding are weak or reduced against the parent protein; the word gives no strength.

Protein sequences, listed by entry. Tags and fused reporters are not part of them. Residues count along the entry.
UniProt Q9Y2A7: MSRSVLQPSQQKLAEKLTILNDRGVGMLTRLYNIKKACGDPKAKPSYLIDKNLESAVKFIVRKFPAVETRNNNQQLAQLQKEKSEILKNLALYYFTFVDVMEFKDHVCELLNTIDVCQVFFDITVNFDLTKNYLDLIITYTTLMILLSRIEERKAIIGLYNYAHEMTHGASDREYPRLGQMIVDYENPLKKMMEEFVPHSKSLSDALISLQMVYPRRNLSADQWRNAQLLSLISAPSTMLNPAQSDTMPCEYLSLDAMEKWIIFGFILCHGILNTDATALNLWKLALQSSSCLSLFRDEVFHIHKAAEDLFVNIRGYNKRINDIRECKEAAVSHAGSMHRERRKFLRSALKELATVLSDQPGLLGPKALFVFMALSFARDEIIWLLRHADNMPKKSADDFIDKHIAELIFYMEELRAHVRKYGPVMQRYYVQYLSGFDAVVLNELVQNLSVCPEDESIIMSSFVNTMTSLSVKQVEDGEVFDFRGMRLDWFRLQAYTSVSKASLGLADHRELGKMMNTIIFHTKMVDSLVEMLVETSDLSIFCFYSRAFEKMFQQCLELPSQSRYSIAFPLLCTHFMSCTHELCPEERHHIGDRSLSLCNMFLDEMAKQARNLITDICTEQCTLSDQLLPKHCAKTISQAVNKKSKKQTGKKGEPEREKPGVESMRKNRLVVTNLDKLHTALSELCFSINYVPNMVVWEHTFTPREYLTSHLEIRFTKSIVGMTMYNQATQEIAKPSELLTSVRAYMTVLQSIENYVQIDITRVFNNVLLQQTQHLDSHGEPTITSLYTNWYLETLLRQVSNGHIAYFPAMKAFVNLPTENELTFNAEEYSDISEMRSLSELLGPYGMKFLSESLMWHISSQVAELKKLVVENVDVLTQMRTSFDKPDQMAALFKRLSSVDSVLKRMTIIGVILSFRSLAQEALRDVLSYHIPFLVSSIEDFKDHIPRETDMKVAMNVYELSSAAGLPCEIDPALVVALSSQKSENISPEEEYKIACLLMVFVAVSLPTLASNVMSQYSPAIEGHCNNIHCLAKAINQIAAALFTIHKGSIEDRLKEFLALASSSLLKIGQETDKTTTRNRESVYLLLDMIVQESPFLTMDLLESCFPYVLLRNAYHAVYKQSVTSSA
UniProt Q7L576: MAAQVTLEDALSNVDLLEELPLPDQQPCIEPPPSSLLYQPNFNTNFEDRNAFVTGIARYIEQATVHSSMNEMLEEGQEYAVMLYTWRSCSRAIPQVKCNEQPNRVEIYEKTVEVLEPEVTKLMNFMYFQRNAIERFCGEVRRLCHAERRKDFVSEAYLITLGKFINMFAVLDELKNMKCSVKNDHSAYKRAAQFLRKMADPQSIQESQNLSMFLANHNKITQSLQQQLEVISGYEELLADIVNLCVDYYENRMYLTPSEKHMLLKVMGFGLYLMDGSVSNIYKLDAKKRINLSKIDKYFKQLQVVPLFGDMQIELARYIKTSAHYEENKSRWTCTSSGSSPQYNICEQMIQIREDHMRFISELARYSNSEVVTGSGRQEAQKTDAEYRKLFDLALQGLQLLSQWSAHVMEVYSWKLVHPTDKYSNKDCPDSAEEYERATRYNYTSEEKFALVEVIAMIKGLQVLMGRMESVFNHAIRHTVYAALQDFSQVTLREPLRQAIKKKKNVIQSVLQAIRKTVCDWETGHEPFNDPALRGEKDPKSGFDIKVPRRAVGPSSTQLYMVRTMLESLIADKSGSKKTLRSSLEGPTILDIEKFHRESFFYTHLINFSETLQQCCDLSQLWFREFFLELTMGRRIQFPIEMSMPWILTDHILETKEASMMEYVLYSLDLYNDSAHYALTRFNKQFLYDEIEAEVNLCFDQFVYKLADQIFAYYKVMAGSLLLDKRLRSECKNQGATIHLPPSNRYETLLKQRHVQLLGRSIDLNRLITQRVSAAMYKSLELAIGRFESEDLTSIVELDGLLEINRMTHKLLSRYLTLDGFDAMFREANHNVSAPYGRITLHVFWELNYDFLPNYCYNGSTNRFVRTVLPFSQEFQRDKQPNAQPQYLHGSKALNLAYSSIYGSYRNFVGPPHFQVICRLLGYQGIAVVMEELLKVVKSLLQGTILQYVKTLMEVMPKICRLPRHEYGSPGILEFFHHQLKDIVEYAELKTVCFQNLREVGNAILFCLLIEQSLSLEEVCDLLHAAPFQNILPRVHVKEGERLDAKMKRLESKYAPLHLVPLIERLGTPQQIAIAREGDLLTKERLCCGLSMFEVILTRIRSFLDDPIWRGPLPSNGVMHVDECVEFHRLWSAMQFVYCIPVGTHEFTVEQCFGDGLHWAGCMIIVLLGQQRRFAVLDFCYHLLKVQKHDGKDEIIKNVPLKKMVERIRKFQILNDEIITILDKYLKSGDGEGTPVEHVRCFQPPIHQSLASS
UniProt Q14C87, residues 31-1099: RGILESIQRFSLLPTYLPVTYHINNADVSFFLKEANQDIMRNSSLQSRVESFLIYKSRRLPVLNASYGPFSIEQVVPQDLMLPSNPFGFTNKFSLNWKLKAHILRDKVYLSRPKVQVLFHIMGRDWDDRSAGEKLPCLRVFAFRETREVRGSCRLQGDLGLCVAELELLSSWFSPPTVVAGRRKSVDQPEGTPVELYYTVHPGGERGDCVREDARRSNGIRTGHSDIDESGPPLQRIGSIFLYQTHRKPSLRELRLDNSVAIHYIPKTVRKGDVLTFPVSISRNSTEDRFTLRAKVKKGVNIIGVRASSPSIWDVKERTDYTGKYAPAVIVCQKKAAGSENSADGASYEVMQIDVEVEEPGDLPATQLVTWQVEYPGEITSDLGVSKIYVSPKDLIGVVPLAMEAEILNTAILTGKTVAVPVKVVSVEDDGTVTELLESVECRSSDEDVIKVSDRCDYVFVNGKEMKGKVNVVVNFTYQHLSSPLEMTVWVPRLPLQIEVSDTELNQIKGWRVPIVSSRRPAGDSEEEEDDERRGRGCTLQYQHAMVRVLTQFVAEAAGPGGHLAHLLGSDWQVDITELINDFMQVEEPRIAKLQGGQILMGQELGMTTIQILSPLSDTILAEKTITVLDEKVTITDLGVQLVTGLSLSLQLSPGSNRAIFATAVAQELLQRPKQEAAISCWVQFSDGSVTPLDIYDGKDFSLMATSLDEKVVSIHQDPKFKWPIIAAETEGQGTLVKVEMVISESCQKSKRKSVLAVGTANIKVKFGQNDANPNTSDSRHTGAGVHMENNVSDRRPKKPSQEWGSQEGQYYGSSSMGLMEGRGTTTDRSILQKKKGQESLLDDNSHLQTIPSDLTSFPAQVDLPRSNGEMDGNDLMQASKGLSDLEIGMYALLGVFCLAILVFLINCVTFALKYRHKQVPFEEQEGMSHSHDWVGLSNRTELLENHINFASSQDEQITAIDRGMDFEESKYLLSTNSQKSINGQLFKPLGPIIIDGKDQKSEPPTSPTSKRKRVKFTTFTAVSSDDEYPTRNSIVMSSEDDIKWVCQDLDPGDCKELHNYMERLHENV

How the values were obtained:
[1] = target: GFP-tagged NAP1 (full length) (human) (UniProt Q9Y2A7); experiment: co-IP
GFP-tagged SRA1 (human) = GFP-tagged SRA1 (human) (UniProt Q7L576); experiment: co-IP

For “V5 epitope-tagged human TMEM132D (from UniProt Q14C87 31-1099)”, which binding [1] is on record?
The binding was “binds”.

And the binding (GFP-tagged SRA1 (human))?
Its binding is “binds”.
